This passage reports binding results from paper PMC3033365.

By UniProt entry, the sequences of proteins in these tests, tags left out. Residues count along the entry.
UniProt O14964: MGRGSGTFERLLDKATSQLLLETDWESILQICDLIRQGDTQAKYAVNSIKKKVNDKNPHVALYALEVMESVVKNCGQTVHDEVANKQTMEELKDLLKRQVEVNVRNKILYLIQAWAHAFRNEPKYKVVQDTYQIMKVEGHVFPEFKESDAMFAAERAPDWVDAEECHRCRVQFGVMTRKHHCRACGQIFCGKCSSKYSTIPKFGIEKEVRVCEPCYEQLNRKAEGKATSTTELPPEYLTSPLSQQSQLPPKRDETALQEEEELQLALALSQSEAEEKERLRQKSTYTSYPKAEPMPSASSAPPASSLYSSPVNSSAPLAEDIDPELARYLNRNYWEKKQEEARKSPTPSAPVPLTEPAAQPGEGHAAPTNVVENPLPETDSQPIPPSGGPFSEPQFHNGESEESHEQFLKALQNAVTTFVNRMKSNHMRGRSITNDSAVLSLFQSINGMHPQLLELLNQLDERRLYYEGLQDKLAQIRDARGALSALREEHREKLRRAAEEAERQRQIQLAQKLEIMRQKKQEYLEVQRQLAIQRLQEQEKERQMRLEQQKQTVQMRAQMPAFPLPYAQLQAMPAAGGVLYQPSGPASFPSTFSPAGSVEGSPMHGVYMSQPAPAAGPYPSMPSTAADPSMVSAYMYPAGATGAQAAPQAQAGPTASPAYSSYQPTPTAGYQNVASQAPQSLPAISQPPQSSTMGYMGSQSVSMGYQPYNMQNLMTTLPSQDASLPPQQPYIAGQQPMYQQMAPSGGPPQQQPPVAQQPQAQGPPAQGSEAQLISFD
UniProt P05923: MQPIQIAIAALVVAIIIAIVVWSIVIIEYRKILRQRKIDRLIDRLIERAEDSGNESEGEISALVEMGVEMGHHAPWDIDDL
UniProt Q10589, residues 1-161: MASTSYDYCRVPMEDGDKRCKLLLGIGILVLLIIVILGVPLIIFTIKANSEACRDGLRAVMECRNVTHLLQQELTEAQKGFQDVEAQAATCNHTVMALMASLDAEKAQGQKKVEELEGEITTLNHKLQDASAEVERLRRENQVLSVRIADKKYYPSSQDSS

No constants are given. Whether binding was seen depends on the method and setting. In cells and extracts the contact can be indirect. Some binding calls cover weakened binding; strength is not graded here.

The test deals with HRS fused to SBP-CBP tags (hepatocyte growth factor-regulated tyrosine kinase substrate, ESCRT-0 component) (UniProt O14964). The experiment in a line: pull-down; SBP-CBP-HRS co-expressed with Flag-BST-2 and/or HA-Vpu in HEK 293T cells; lysate 24 h after transfection; two consecutive rounds (streptavidin resin, elution, calmodulin resin); western blot with antibodies to HRS, HA and Flag. A general note: Immunoblotting shows a protein as a band on a membrane.

With “HA-tagged Vpu (HIV-1 accessory protein Vpu) (from UniProt P05923 1-81)”, the binding entry is on record as “binds”. For “Flag-tagged BST-2 (bone marrow stromal antigen 2, tetherin) (from UniProt Q10589 1-161)” the value was “binds”.
